Laboratory results published in PubChem BioAssay AID540276 (National Center for Advancing Translational Sciences (NCATS), 2011).
Screen size: about 300,000 compounds; about 5,400 (1.8%) were called active. The inconclusive results got no clear call from the source; some entries with a clear call stand among them for comparison. Calls come from the whole dose curve; tested in HEK293 cells. Potencies of inconclusive entries are doubtful fits and often do not repeat.

test: qHTS for inhibitors of binding or entry into cells for Marburg Virus; details: Marburg virus pseudotyped entry inhibition, cell reporter; activity change, negative = inhibition: at 37.8 µM (top of the series) unless noted
% is set by controls: 0 for no effect and ±100 for the full control effect; potency is the fitted concentration of half-maximal effect.

SMILES	Potency	activity change, negative = inhibition
CSc1ccc(S(=O)(=O)N2CCC(C(=O)Nc3ccc(C(N)=O)cc3)CC2)cc1	inconclusive: 17.8 µM [inhibitor, single point]	–
CCCNC(=O)c1ccc2c(c1)nc(C)n2-c1cccc(C)c1	inconclusive: 31.6 µM [inhibitor, partial curve, poor fit]	–
CC(=O)Nc1ccccc1NC(=O)C/C(C)=N/NC(=O)c1cccnc1	–	inactive: -19.7% [at 46.1 µM]
Cc1ccc(C)c(NC(=O)Cn2nnc(C(=O)NCc3cccs3)c2N)c1	inconclusive: 2.06 µM [inhibitor, partial curve, poor fit]	–
CCOC(=O)Cn1ncc2c(=O)oc3ccccc3c21	–	inactive: -11.8%
CCN(CC)CCN1C(=O)C(O)=C(C(=O)c2cc3ccccc3o2)C1c1cccnc1 (configuration not stated)	inconclusive: 6.31 µM [activator, full curve, poor fit]	–
COc1ccc(OCCCn2cc(/C=C3/C(=N)N4C=C(C)SC4=NC3=O)c3ccccc32)cc1	inconclusive: 5.62 µM [activator, single point]	–
C[C@H]1CN(c2ccc(Br)cc2)C(=O)[C@H]1CC(=O)Nc1ccc(Br)cc1	inconclusive: 12.5 µM [inhibitor, partial curve, poor fit]	–
COCC(C)n1c(C)cc(C(=O)COC(=O)c2n[nH]c3ccccc23)c1C (configuration not stated)	inconclusive: 12.6 µM [inhibitor, single point]	–
Cc1nn(C)c(C(=O)Sc2cccc(Cl)c2)c1[N+](=O)[O-]	inconclusive: 6.31 µM [activator, partial curve, poor fit]	–
Cc1ccc(C)c(S(=O)(=O)NCc2ccc(C(=O)N3CCCCCC3)cc2)c1	inconclusive: 35.5 µM [inhibitor, single point]	–
CCOc1ccc(-n2ccnc(SCC(=O)NCc3cccc(OC)c3)c2=O)cc1	–	inactive: -52.2%
Oc1ccc(/C=N/Nc2ncnc3c2ncn3Cc2ccccc2)cc1O	inconclusive: 32.6 µM [inhibitor, single point]	–
COc1ccc(NC2=C3CC(C)CC=C3N(c3ccc(OC)cc3)C2=O)cc1 (configuration not stated)	inconclusive: 6.31 µM [inhibitor, single point]	–
Cc1cccc(-n2nc3c(c2NC(=O)c2ccco2)CS(=O)C3)c1C (configuration not stated)	–	inactive: -0.0295% [at 46.1 µM]
N#Cc1ccc(C(=O)NCC(c2ccco2)N2CCCCC2)cc1 (configuration not stated)	–	inactive: -2.53%
CC(C)=CCC/C(C)=C/CO/N=C1\C[C@@H](O)[C@@H](O)[C@@H]2[C@@H]3C(=O)N(Cc4ccccc4)C(=O)[C@@H]3CC[C@H]12	–	inactive: 3.03% [at 14.2 µM]
CCOC(=O)C1=C(C)NC(C)=C(C(=O)OCC)C1C(=O)OCC(=O)NCc1ccco1	inconclusive: 35.5 µM [inhibitor, single point]	–
CSc1ccccc1COC(=O)Nc1ccccc1C	inconclusive: 1.26 µM [inhibitor, partial curve, poor fit]	–
O=C(CSc1nnc(CNC(=O)c2c(F)cccc2Cl)o1)c1ccccc1	–	inactive: 9.05%
O=C(N/N=C\C=C\c1ccc2c(c1)OCO2)c1cccnc1	–	inactive: 9.63%
CN(C)CC(O)c1ccc(C=Cc2ccc(Cl)cc2)cc1 (configuration not stated)	inconclusive: 1.58 µM [activator, partial curve, poor fit]	–
O=C1C(C=Nc2ccccc2O)=C(O)c2ccccc21	inconclusive: 3.26 µM [activator, partial curve, poor fit]	–

Molecules listed so far with nitrogen in an aromatic ring (13):
SMILES	Potency	activity change, negative = inhibition
CCCNC(=O)c1ccc2c(c1)nc(C)n2-c1cccc(C)c1	inconclusive: 31.6 µM [inhibitor, partial curve, poor fit]	–
CC(=O)Nc1ccccc1NC(=O)C/C(C)=N/NC(=O)c1cccnc1	–	inactive: -19.7% [at 46.1 µM]
Cc1ccc(C)c(NC(=O)Cn2nnc(C(=O)NCc3cccs3)c2N)c1	inconclusive: 2.06 µM [inhibitor, partial curve, poor fit]	–
CCOC(=O)Cn1ncc2c(=O)oc3ccccc3c21	–	inactive: -11.8%
CCN(CC)CCN1C(=O)C(O)=C(C(=O)c2cc3ccccc3o2)C1c1cccnc1 (configuration not stated)	inconclusive: 6.31 µM [activator, full curve, poor fit]	–
COc1ccc(OCCCn2cc(/C=C3/C(=N)N4C=C(C)SC4=NC3=O)c3ccccc32)cc1	inconclusive: 5.62 µM [activator, single point]	–
COCC(C)n1c(C)cc(C(=O)COC(=O)c2n[nH]c3ccccc23)c1C (configuration not stated)	inconclusive: 12.6 µM [inhibitor, single point]	–
Cc1nn(C)c(C(=O)Sc2cccc(Cl)c2)c1[N+](=O)[O-]	inconclusive: 6.31 µM [activator, partial curve, poor fit]	–
CCOc1ccc(-n2ccnc(SCC(=O)NCc3cccc(OC)c3)c2=O)cc1	–	inactive: -52.2%
Oc1ccc(/C=N/Nc2ncnc3c2ncn3Cc2ccccc2)cc1O	inconclusive: 32.6 µM [inhibitor, single point]	–
Cc1cccc(-n2nc3c(c2NC(=O)c2ccco2)CS(=O)C3)c1C (configuration not stated)	–	inactive: -0.0295% [at 46.1 µM]
O=C(CSc1nnc(CNC(=O)c2c(F)cccc2Cl)o1)c1ccccc1	–	inactive: 9.05%
O=C(N/N=C\C=C\c1ccc2c(c1)OCO2)c1cccnc1	–	inactive: 9.63%

Following part

SMILES	Potency	activity change, negative = inhibition
O=C(NC(=S)Nn1cnnc1)c1ccc(F)cc1Cl	–	inactive: 24.4% [at 46.1 µM]
CCCc1ccc(Oc2cn[nH]c2-c2ccc(O)c(C)c2O)cc1	inconclusive: 29.1 µM [inhibitor, single point]	–
COC1=C(CC=C(C)C)C2=C(CCC(=O)O2)CC1	inactive	–
COc1cccc(NC(=O)c2cc(-c3ccncc3)nc3c(C)cc(C)cc23)c1	inconclusive: 11.2 µM [inhibitor, partial curve, poor fit]	–
CN(C)CCCN(Cc1ccccc1)C(=S)Nc1cccc(C(F)(F)F)c1	inconclusive: 35.5 µM [inhibitor, single point]	–
Cc1ccnc(NC(=O)CCCOc2cc(=O)n(C)c3ccccc23)c1	inconclusive: 29.1 µM [inhibitor, single point]	–
COC(=O)N[C@H](C(C(=O)OC)=C(C)NCc1ccccc1)c1ccco1	–	inactive: -23.9% [at 14.2 µM]
Cc1cccc2c1N(N=O)CCC2	inconclusive: 35.5 µM [activator, single point]	–
O=S(=O)(c1ccc(F)c(F)c1)N1CCN(c2ncccn2)CC1	inconclusive: 5.62 µM [inhibitor, single point]	–
Cc1cc(C)nc(NS(=O)(=O)c2cccs2)c1	inconclusive: 6.31 µM [activator, full curve]	–
COc1ccc(/C=C2/C(=O)ON=C2C)cc1Br	inconclusive: 35.5 µM [inhibitor, single point]	–
CCOc1ccccc1CNCCOC	inconclusive: 0.708 µM [inhibitor, full curve, poor fit]	–
CC1(C)CC(=O)C2=C(C1)NC1=C(C(=O)c3ccccc31)C2c1cc([N+](=O)[O-])ccc1O (configuration not stated)	inconclusive: 10 µM [inhibitor, partial curve, poor fit]	–
Brc1ccc(-c2cn3ccccc3n2)cc1	inconclusive: 3.98 µM [activator, partial curve, poor fit]	–
O=C(CCCC(=O)OCC(Cl)=C(Cl)Cl)Nc1ccccc1	inconclusive: 0.316 µM [activator, partial curve, poor fit]	–
O=C(Nc1ccccc1N1CCOCC1)c1ccc([N+](=O)[O-])o1	inconclusive: 15.8 µM [activator, single point]	–
O=C(NCC1CCCCC1)c1ccc(Cl)nc1	inconclusive: 35.5 µM [activator, single point]	–
Cc1oc2ccc(NS(=O)(=O)c3cccc4cccnc34)cc2c1C(=O)OC(C)C	inconclusive: 35.5 µM [inhibitor, single point]	–
CCOc1cc(N2CCOCC2)c(OCC)cc1NC(=O)c1cc(S(=O)(=O)N2CCOCC2)ccc1F	inconclusive: 22.4 µM [inhibitor, single point]	–
COCCn1c(SCC(=O)N2CCCC2)nnc1C(C)C	–	inactive: 18% [at 46.1 µM]
O=C(CCc1nc(-c2ccccc2)c(-c2ccccc2)o1)OCc1ccc(Cl)cc1	inconclusive: 1.16 µM [inhibitor, single point]	–
COc1cccc(OCCNC(=O)CSc2ccc(C(F)(F)F)cc2[N+](=O)[O-])c1	inconclusive: 3.55 µM [activator, partial curve, poor fit]	–
Cc1ccc(NC(=O)c2nnn(Cc3cccc(C(F)(F)F)c3)c2N)c(C)c1	–	inactive: 5.16% [at 46.1 µM]

Some of these compounds in order of number of heavy atoms, low to high.
SMILES	Potency	activity change, negative = inhibition
CSc1ccccc1COC(=O)Nc1ccccc1C	inconclusive: 1.26 µM [inhibitor, partial curve, poor fit]	–
C[C@H]1CN(c2ccc(Br)cc2)C(=O)[C@H]1CC(=O)Nc1ccc(Br)cc1	inconclusive: 12.5 µM [inhibitor, partial curve, poor fit]	–
COc1ccc(OCCCn2cc(/C=C3/C(=N)N4C=C(C)SC4=NC3=O)c3ccccc32)cc1	inconclusive: 5.62 µM [activator, single point]	–

(list continues)

SMILES	Potency	activity change, negative = inhibition
O=C(NCC1CCCO1)c1nc2c(nnn2Cc2ccc(F)cc2)c(=O)[nH]1 (configuration not stated)	inconclusive: 23.1 µM [activator, partial curve, poor fit]	–
CC1CCN(C(=S)c2ccc(N(C)C)cc2)CC1	inconclusive: 22.4 µM [activator, single point]	–
COc1ccccc1NC(=O)CNC(=O)c1ccccc1	–	inactive: 21.5%
O=[N+]([O-])c1ccccc1S(=O)(=O)NC1CCCCCCC1	inconclusive: 35.5 µM [inhibitor, single point]	–
Cc1ccc(C(=O)c2oc3ccccc3c2NC(=O)c2cc(=O)c3cc(C)ccc3o2)cc1	–	inactive: 3.6% [at 46.1 µM]
Cc1cc(C)c2nc(C(F)(F)F)c(C#N)c(N)c2c1	inconclusive: 22.4 µM [activator, partial curve, poor fit]	–
c1ccc(Cc2noc(CN3CCCN(C4Cc5ccccc5C4)CC3)n2)cc1	inconclusive: 3.98 µM [inhibitor, partial curve, poor fit]	–
O=C(Nc1ccc([N+](=O)[O-])cc1)C1(c2ccccc2)CCOCC1	inconclusive: 0.282 µM [inhibitor, full curve, poor fit]	–
O=C(Nc1cccnc1)C1(F)C(F)(F)C(F)(F)C(F)(F)C(F)(F)C1(F)F	inconclusive: 5.62 µM [activator, single point]	–
COc1ccc(CN2CCCC(CO)(Cc3ccc(F)cc3F)C2)cc1 (configuration not stated)	active: 10 µM	–
Cc1ccc(/C(O)=C2\C(=O)C(=O)N(c3cc(C)on3)C2c2cccc(Br)c2)cc1 (configuration not stated)	–	inactive: 1.65%
COc1ccc(C2=Nc3ccc(OC(F)(F)F)cc3NC(c3cccnc3)=N2)cc1	–	inactive: -3.78% [at 46.1 µM]
Cc1ccc(Cn2cccc(NC(=O)CCC3CCCC3)c2=O)cc1	inconclusive: 8.91 µM [inhibitor, partial curve]	–
CCOc1ccc(C(Nc2cccnc2)c2cc(Cl)c3cccnc3c2O)cc1 (configuration not stated)	inconclusive: 11.2 µM [inhibitor, partial curve, poor fit]	–
CSc1nsc(SCC(=O)Nc2ccc(OC(C)=O)cc2)n1	inconclusive: 0.316 µM [activator, partial curve, poor fit]	–
Cc1cc(Cl)c2oc(C(=O)N(C)CCc3cnn(C)c3)c(C)c2c1	inconclusive: 35.5 µM [inhibitor, single point]	–
CCC(C)n1c(=N)c(C(=O)NC2CCCCC2)cc2c(=O)n3ccccc3nc21 (configuration not stated)	–	inactive: -2.28% [at 46.1 µM]
CCOC(=O)c1c(NC(=O)CSc2nc3ccc(C)cc3[nH]2)sc2c1CC(C)(C)NC2(C)C	inconclusive: 11.2 µM [inhibitor, partial curve, poor fit]	–
CCOP(=O)(c1ccccc1)C(O)c1ccccc1 (configuration not stated)	inconclusive: 0.82 µM [activator, single point]	–
COc1cc(Cl)c(C)cc1NC(c1ccccc1)c1nnc(-c2ccccc2Cl)o1 (configuration not stated)	–	inactive: 3.94% [at 46.1 µM]
CCc1c(C)sc2nc(C(C)C)nc(SCC(=O)N3CCc4ccccc4C3)c12	inconclusive: 32.6 µM [inhibitor, single point]	–
